Assay results from the supplement of paper PMC10849652.
The list shows a part of the results.

The chains behind the UniProt entries cited, without tags or fusion partners. Where a name states a change or a piece, a line headed by the entry shows the natural chain unless it says otherwise.
UniProt Q96EU6: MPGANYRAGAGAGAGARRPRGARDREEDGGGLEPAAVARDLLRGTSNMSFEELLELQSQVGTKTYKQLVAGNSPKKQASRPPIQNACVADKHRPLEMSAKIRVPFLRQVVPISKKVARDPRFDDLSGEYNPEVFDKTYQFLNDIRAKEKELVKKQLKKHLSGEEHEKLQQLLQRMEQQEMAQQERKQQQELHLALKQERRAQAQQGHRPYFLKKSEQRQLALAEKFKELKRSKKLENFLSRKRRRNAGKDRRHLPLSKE
UniProt O14521: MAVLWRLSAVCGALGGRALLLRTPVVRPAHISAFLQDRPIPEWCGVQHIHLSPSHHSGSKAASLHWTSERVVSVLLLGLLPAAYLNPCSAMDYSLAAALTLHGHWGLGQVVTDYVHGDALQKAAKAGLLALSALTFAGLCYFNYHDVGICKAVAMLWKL
UniProt Q8IZE3: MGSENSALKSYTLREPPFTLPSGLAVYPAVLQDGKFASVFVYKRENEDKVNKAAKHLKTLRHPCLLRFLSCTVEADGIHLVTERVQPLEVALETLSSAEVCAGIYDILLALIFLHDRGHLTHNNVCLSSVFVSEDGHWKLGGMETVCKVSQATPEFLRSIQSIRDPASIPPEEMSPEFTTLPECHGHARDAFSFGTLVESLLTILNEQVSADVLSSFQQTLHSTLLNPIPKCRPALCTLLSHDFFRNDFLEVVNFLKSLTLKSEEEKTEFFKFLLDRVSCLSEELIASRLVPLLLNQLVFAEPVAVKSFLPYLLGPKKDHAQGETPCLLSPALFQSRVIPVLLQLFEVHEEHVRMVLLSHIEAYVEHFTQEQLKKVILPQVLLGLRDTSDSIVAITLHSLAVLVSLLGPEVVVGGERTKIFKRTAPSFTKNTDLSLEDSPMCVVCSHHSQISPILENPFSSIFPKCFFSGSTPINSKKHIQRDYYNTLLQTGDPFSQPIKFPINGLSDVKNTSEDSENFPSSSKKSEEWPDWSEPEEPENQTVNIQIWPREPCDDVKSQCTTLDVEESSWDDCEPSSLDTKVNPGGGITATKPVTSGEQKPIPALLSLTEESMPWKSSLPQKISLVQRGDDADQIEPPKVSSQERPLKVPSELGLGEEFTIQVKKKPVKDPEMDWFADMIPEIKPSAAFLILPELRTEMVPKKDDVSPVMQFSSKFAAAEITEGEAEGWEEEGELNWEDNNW
UniProt O15127: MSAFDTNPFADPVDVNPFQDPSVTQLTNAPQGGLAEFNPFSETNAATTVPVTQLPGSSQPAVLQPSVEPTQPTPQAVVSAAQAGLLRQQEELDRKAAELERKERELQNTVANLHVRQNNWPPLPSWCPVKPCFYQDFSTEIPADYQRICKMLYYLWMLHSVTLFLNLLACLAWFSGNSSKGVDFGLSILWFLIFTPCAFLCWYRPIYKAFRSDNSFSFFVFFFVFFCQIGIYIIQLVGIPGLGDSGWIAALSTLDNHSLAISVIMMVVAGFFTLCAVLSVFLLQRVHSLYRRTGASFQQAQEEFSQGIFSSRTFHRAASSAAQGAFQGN
UniProt Q9NRG7: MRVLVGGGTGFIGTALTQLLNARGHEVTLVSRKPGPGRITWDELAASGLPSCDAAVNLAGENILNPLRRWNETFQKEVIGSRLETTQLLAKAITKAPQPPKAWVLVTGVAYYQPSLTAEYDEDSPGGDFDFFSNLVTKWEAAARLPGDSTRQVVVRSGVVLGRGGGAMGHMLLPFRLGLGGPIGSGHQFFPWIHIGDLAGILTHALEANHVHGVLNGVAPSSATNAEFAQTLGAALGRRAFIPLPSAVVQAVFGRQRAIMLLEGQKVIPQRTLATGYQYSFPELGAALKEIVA
UniProt Q9BY42: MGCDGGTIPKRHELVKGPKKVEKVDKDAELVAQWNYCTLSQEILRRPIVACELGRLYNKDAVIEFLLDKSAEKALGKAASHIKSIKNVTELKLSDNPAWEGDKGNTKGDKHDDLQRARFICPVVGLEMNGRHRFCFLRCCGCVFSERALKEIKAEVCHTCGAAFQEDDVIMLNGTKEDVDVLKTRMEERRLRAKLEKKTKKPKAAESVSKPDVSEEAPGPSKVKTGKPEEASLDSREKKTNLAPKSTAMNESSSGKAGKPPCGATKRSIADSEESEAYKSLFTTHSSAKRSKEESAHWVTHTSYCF
UniProt Q5VUM1: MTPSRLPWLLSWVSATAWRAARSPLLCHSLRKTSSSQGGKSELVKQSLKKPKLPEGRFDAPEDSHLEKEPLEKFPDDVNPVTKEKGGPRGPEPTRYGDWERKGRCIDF
UniProt O95969: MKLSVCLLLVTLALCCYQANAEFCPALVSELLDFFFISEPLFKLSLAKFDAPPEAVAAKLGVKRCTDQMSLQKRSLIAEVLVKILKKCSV
UniProt Q01196, whole entry, looked up: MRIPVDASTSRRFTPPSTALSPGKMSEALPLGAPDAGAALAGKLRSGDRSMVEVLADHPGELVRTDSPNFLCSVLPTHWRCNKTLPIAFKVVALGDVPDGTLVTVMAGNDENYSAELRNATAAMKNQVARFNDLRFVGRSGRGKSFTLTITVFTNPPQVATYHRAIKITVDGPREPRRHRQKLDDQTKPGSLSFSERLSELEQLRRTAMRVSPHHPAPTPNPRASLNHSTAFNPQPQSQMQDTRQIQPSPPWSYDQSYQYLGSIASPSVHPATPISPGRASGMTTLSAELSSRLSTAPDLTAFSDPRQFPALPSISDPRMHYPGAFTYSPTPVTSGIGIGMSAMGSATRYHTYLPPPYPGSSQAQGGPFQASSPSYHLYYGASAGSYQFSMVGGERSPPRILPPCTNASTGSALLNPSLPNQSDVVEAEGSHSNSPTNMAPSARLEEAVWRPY
UniProt Q96DX4: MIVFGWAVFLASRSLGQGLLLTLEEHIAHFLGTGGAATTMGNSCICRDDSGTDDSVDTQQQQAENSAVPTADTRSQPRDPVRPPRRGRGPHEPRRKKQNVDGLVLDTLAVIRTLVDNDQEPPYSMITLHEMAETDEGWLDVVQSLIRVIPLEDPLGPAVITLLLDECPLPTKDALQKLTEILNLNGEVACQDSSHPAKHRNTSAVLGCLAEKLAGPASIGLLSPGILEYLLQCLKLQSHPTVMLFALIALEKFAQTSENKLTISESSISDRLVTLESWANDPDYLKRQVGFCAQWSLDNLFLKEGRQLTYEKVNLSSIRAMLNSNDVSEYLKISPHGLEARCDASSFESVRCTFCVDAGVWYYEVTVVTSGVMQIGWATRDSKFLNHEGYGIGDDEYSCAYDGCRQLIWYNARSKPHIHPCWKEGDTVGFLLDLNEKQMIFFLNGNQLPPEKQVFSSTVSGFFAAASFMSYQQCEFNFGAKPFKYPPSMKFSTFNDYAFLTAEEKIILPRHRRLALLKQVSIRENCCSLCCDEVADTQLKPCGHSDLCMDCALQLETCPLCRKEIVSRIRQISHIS
UniProt Q9HCY8: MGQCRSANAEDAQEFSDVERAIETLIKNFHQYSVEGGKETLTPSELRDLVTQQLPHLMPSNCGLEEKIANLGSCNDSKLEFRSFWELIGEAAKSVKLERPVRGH
UniProt O75845: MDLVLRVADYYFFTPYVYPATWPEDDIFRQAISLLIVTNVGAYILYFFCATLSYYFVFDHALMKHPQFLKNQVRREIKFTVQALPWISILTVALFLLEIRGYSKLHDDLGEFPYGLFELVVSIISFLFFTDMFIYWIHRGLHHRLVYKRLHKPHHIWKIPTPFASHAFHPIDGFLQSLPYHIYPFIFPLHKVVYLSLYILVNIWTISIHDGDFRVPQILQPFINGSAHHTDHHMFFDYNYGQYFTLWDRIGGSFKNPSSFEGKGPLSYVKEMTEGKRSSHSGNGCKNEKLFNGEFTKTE
UniProt Q9NX18: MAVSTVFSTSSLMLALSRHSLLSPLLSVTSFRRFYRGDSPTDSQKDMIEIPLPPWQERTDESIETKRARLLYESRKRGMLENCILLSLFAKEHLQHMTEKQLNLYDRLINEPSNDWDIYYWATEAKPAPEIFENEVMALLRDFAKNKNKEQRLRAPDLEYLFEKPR
UniProt Q8N9R8: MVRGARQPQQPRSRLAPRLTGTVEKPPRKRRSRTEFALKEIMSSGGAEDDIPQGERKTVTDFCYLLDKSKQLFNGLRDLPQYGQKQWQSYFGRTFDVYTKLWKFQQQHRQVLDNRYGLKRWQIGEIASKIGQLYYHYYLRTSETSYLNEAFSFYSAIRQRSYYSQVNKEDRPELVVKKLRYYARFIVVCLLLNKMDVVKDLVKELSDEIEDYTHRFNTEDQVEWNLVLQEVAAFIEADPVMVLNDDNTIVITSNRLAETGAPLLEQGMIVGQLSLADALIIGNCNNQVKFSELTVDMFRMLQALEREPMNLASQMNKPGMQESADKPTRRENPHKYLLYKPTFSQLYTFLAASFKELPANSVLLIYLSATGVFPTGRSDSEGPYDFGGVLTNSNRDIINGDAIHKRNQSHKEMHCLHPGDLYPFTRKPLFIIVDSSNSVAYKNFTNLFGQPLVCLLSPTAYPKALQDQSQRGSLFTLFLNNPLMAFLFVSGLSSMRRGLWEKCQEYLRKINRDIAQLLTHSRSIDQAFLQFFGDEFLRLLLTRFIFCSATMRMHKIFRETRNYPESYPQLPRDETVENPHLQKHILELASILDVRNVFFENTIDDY
UniProt P26447: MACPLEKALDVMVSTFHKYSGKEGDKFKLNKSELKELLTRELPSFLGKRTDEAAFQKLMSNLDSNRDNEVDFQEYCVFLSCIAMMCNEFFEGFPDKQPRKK
UniProt P57060: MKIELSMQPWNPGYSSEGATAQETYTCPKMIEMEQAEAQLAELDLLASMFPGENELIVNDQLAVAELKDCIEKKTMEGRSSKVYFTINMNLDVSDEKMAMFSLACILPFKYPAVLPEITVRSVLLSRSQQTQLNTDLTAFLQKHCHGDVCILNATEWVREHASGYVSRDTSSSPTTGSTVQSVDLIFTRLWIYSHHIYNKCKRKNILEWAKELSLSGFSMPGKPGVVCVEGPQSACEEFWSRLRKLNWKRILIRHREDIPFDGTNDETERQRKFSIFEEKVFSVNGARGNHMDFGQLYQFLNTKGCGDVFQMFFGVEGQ
UniProt Q7L099: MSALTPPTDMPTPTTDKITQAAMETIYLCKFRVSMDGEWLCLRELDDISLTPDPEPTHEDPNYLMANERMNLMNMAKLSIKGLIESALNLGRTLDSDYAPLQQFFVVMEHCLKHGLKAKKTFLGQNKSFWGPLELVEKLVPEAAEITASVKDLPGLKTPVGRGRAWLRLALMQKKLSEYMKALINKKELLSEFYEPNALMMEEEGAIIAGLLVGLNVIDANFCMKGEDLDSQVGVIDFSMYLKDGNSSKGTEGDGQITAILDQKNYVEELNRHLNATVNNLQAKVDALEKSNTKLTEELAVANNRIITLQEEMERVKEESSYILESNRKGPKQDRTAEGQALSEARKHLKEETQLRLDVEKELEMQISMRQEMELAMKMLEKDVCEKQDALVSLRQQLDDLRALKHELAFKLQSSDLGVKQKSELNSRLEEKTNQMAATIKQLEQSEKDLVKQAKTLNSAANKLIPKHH
UniProt Q9NQC3: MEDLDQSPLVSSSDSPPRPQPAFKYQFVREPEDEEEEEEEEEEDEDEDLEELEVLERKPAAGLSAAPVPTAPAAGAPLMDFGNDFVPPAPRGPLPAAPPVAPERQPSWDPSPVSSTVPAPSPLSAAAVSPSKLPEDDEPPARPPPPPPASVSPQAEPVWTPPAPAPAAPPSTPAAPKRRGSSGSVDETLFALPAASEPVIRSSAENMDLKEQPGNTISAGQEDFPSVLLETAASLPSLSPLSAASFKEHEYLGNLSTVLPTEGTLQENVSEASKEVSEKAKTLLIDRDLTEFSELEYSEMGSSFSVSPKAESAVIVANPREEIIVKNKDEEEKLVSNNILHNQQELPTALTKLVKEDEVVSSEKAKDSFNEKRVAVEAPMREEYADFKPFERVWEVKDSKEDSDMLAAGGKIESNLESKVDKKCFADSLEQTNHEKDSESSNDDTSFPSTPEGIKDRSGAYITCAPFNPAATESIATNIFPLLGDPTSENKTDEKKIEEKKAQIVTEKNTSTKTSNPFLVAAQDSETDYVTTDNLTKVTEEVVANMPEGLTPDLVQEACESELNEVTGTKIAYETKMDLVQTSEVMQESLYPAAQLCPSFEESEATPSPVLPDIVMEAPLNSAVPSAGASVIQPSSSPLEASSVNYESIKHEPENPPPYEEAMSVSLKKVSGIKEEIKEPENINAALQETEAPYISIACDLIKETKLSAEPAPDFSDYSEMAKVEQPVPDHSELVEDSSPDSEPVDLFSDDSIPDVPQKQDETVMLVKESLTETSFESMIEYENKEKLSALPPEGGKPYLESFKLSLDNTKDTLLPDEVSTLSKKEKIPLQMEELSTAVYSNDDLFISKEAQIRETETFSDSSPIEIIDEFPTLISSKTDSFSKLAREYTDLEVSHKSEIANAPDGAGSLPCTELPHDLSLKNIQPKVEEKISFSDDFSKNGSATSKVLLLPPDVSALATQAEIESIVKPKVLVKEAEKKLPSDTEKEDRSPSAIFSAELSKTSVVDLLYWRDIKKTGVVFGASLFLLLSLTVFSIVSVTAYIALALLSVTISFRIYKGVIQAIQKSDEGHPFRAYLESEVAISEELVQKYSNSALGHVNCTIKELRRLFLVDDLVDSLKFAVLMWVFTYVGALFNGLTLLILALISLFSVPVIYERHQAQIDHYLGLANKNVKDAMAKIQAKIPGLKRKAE

compound: C=CC(=O)N1CCC[C@@H](n2nc(-c3ccc(Oc4ccccc4)cc3)c3c(N)ncnc32)C1 [ibrutinib]; test: log2 fold change, soluble protein after heating vs DMSO (PISA); higher = thermal stabilisation; K562 cells, 10 uM, 30 min; active = over 0.2 and 3.5 SD of the protein, either way, in both replicates (recomputed)
Procedure, shortened: (§1)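 Aliquots of K562 cells (2×10^6 cells/mL) treated with 10 μM compound for 30 min were heated for 3 min over 48°C-58°C. After pooling and extraction in PBS with 0.5% NP-40 at 4°C, soluble protein from a 21,000xg, 90 min spin was quantified by TMTpro 16plex LC-MS/MS with channel sums equalised. Thermal stability is expressed against control samples, from duplicates, as a log2 fold change.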

Target | log2 fold change
RRP36 (UniProt Q96EU6) | inactive: 0.045
SCAMP2 (UniProt H3BUB6) | inactive: 0.103
SDHD (UniProt O14521) | inactive: 0.04
SCG3 (UniProt Q8WXD2) | inactive: 0.035
SCYL3 isoform 2 (UniProt Q8IZE3) | inactive: 0.02
SCAMP2 (UniProt O15127) | inactive: 0.09
SDHB, A0A087WXX8 | inactive: -0.11
SDR39U1 (UniProt Q9NRG7) | inactive: 0.437
RTF2 (UniProt Q9BY42) | inactive: -0.096
SDHAF4 (UniProt Q5VUM1) | inactive: 0.01
RSRC2 (UniProt Q7L4I2) | inactive: -0.035
SCGB1D2 (UniProt O95969) | inactive: 0.039
RUNX1 isoform 8 (UniProt Q01196) | inactive: 0.058
SEC22A (UniProt Q96IW7) | inactive: -0.132
SACM1L (UniProt Q9NTJ5) | inactive: -0.031
RSF1 (UniProt Q96T23) | inactive: -0.054
SAMD4B (UniProt Q5PRF9) | inactive: -0.024
SDHB, A0A087WWT1 | inactive: -0.025
S100A2 (UniProt P29034) | inactive: 0.181
SCAF4 (UniProt O95104) | inactive: 0.004
RSPRY1 (UniProt Q96DX4) | inactive: 0.027
S100A14 (UniProt Q9HCY8) | inactive: -0.039
SC5D (UniProt O75845) | inactive: 0.068
RSL24D1 (UniProt Q9UHA3) | inactive: -0.063
SDHAF2 (UniProt Q9NX18) | inactive: -0.004

compound: CC(=O)c1cnc2ccc(-c3cc(Cl)c(O)c(Cl)c3)nc2c1N[C@H]1CC[C@H](CN(C)C)CC1; test: as above
Procedure, shortened: as §1

Target | log2 fold change
RRP36 (UniProt Q96EU6) | inactive: 0.122
SCAMP2 (UniProt H3BUB6) | inactive: -0.171
SDHD (UniProt O14521) | inactive: 0.015
SCG3 (UniProt Q8WXD2) | inactive: -0.107
SCYL3 isoform 2 (UniProt Q8IZE3) | inactive: -0.002
SCAMP2 (UniProt O15127) | inactive: 0.08
SDHB, A0A087WXX8 | inactive: -0.095
SDR39U1 (UniProt Q9NRG7) | inactive: 0.01
RTF2 (UniProt Q9BY42) | inactive: -0.017
SDCCAG8 (UniProt Q86SQ7) | inactive: 0.054
SDHAF4 (UniProt Q5VUM1) | inactive: -0.055
RSRC2 (UniProt Q7L4I2) | active: -0.284
SCAI isoform 2 (UniProt Q8N9R8) | inactive: -0.252
SCGB1D2 (UniProt O95969) | inactive: 0.026
RUNX1 isoform 8 (UniProt Q01196) | inactive: -0.207
SEC22A (UniProt Q96IW7) | inactive: 0.069

Target | log2 fold change
S100A4 (UniProt P26447) | inactive: -0.04
SACM1L (UniProt Q9NTJ5) | inactive: -0.022
RSF1 (UniProt Q96T23) | inactive: 0.043
SAP30 (UniProt O75446) | inactive: 0.085
SDHB, A0A087WWT1 | inactive: -0.105
S100A2 (UniProt P29034) | inactive: 0.006
RWDD2B (UniProt P57060) | inactive: 0.087
SCAF4 (UniProt O95104) | inactive: -0.06
RSPRY1 (UniProt Q96DX4) | inactive: 0.02
S100A14 (UniProt Q9HCY8) | inactive: -0.231
SC5D (UniProt O75845) | inactive: 0.064
RSL24D1 (UniProt Q9UHA3) | inactive: 0.301
SDHAF2 (UniProt Q9NX18) | inactive: 0.124
RUFY3 isoform 3 (UniProt Q7L099) | inactive: 0.023
RTN4 isoform 5 (UniProt Q9NQC3) | inactive: 0.028
